The experiment deals with Adenylate Cyclase (Bordetella pertussis, UniProt P0DKX7). The format is biochemical. The following applies: enzyme 4.6 nmoles; imidazole 2.7 mmoles, PGE2-Histidine adduct 52 μmoles, celecoxib 0.52 mmoles.

Data on one molecule can be found in US20020032228A1 (priority 2000, published 2002).

Each structure is given as a SMILES string.

Take `COc1ccc(-n2nc(C(F)(F)F)cc2-c2ccc(Cl)cc2)cc1` [SC560, reference compound]: the “inhibition of adenylate cyclase enzyme activity (FIG. 12)” value is “absence of adenylate cyclase inhibition”.
